# In the supplement of paper PMC3334620:
# The full ranking holds about 33,000 sequences; the median of “E-score (-0.5 to 0.5)” is about -0.0014, and the highest 2% start at about 0.25. Some of the results follow.
# Biological target: T1, Cad1 (UniProt P24813)
# T1 sequence: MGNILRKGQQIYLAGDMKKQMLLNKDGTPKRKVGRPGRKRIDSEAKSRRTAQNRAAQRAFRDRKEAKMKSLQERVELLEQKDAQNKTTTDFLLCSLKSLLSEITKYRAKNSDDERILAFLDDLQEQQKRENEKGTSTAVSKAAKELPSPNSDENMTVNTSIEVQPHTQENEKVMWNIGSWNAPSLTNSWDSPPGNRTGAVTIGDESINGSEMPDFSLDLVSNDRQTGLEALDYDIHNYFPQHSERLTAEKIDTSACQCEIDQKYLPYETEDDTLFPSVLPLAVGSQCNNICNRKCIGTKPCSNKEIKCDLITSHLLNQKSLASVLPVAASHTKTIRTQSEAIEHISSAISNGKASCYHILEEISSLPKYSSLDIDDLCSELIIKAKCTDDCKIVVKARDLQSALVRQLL
# Assay: PBM E-score (8-mer binding enrichment) (E-score (-0.5 to 0.5)); higher = stronger / more preferred TF binding
# Conditions: protein concentration: 100 nM; construct: GST-full length
# In short: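 Full-length yeast transcription factors or their DNA-binding domains, GST-tagged and expressed with PURExpress, were applied at about 100-200 nM to universal all-10-mer Agilent arrays. These arrays had been made double-stranded by primer extension on fresh or once-stripped slides. Detection used fluorescent anti-GST, normalisation used masliner, and E-scores for ungapped eight-base words pooled with reverse complements came from the Universal PBM Analysis Suite.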
row,Sequence,PBM E-score
1,ATTGTGGA,-0.0289
2,ACGTGAAC,-0.114
3,GACGGGGA,-0.19
4,CGCGGGCC,0.211
5,CAGATGCC,-0.141
6,CCATTCAG,0.136
7,CACTACAG,0.0204
8,CGGAGTAC,-0.167
9,GGTAACCA,-0.117
10,ATGTAGTC,0.0234
11,GCTTTGAA,0.108
12,TGATCCCA,-0.042
13,GCCCTTCC,-0.221
14,CAATTTGC,0.0647
15,AAGCGTTA,-0.0772
16,ATTTAGAG,0.0426
17,ACCTCAGT,-0.0777
18,AGTGAGTC,-0.0203
19,AACTGTCT,-0.015
20,CCGTTTAG,0.00061
21,ATGGTGGA,-0.14
22,CCTCAAAG,-0.171
23,AGGGTCGA,0.0333
24,AGCAGTGA,0.163
25,GCTGGTCA,-0.00985

row,Sequence,PBM E-score
1,ATATGCAG,0.105
2,ACGCTAAC,0.0893
3,GCGACCGC,0.0307
4,ATGCCGGC,0.089
5,GTGCTGGA,-0.106
6,CTAGATGA,-0.147
7,CAGGCACA,-0.228
8,AGAGGTGC,-0.0451
9,GTAATAAC,0.106
10,GAGGTTTA,0.00031
11,CCTGTGGA,-0.3
12,GCAAGATA,0.129
13,AAGGAAGC,-0.0888
14,TAGAACCA,-0.0883
15,CCCCCAAC,-0.268
16,GTAGCAGA,0.149
17,ACCCCGCG,-0.166
18,ATCGGACC,-0.0367
19,GACGCCAC,-0.103
20,CTGATAAG,0.166
21,CCGTCATA,-0.0187
22,CAATTAGC,0.00571
23,ACACTTTA,0.0868
24,ACCAATCA,0.032
25,GTCTTTCA,-0.203

row,Sequence,PBM E-score
1,ACGTTTGC,0.0814
2,ACAGACAT,0.0522
3,TACCATGA,-0.103
4,AGGGCCCG,-0.21
5,ACTTGTCT,0.172
6,AGACGGGA,-0.0621
7,ATTCTCCA,0.0671
8,CCCCCACA,-0.453
9,CCACGCCC,-0.267
10,ACGTCGAT,0.178
11,ACTAACTC,-0.0331
12,ACATAAAA,0.229
13,AAATCAGA,0.0843
14,CCCCGGAA,-0.247
15,CAACCTGG,-0.0297
16,CTGCCGAC,-0.0175
17,GATAGTAC,0.0176
18,AACAGTGG,-0.00493
19,ATCTTTCG,-0.0314
20,CCTACCCC,-0.248
21,ATCGACAC,0.081
22,ACGGTGAC,-0.102
23,CTTCACAA,-0.0814
24,ACAATGAG,-0.146
25,CCACGCTC,-0.0899

row,Sequence,PBM E-score
1,ACCGGGGC,-0.162
2,CACGGTGG,0.0104
3,GCGAAGTA,0.0916
4,AACCGCTT,0.0439
5,ATTCGCTG,0.146
6,ATCGGGAG,0.0171
7,GACCGCGC,0.0162
8,CGAGAAAC,-0.018
9,AAGCGGAC,0.0105
10,CCCTCATA,-0.0953
11,ATACTTAG,0.109
12,GGCCTGCA,-0.248
13,AGTTTTCG,0.112
14,GGGGCAAC,-0.0927
15,AAGCCCCC,-0.422
16,CTAAACGC,0.11
17,GCATGGGC,-0.213
18,TACCACCA,0.0167
19,ATTTCTGA,0.0948
20,AACCAGAT,0.122
21,GGGAGTTA,-0.108
22,CGGACCAA,0.175
23,CGGGTCTC,-0.18
24,AGACTAAC,-0.122
25,ACCGTAAC,-0.184

row,Sequence,PBM E-score
1,TGCTCGAA,-0.0951
2,CCCTAAAC,-0.0926
3,ATAGAATG,0.112
4,CGCGAGCA,0.164
5,GTTTCTGA,0.142
6,CGTGCCAA,0.0666
7,TCACGCAA,0.15
8,CGTCACTC,-0.218
9,AGGGGCTA,-0.2
10,CATGTGCG,0.173
11,AAATAAAT,0.314
12,AGTGGTGG,-0.0881
13,GAGCTGTA,-0.0985
14,CCCTGTTA,-0.0423
15,GGCGGCAC,-0.0382
16,CTGGGTCA,-0.183
17,TATAGATA,0.0297
18,ATGGACTC,-0.16
19,ATTCAACG,0.082
20,ATTGTAAA,0.0972
21,ACCTATAC,-0.126
22,GGACTCCC,-0.213
23,AAATACAG,-0.0467
24,GATATGAC,0.144
25,CGGACTCA,-0.02

row,Sequence,PBM E-score
1,TAACAAGA,-0.0477
2,AATAACCC,0.128
3,AATGTGGT,0.0506
4,AGCGTGAG,-0.0272
5,ATGCAGTG,0.143
6,AATTCGCT,0.236
7,ACGACCTA,-0.0934
8,ACCTTCCA,-0.0872
9,AGGGCTTA,-0.0793
10,AGGGGGCG,-0.326
11,CAACTGTG,-0.031
12,AGTCTACA,-0.246
13,CATGCCGA,0.248
14,ATACTCAA,-0.0344
15,CATACGAC,-0.0038
16,CTCCAACA,-0.0567
17,CATTAGGC,-0.191
18,AGTTCAAC,0.11
19,AAGTTAAG,-0.152
20,ATTAGTGG,0.163
21,ACCGTTTA,-0.0313
22,CTCTATAC,0.0205
23,AGCGCTAA,0.212
24,AGACCTAA,-0.0611
25,CAATCCCC,-0.19

# Fetched one by one from the list above, 7 records:
row,Sequence,PBM E-score
18,AGTTCAAC,0.11
2,AATAACCC,0.128
20,ATTAGTGG,0.163
22,CTCTATAC,0.0205
15,CATACGAC,-0.0038
19,AAGTTAAG,-0.152
4,AGCGTGAG,-0.0272

# Rewritten bar-delimited: entries from further up
row | Sequence | PBM E-score
1 | TAACAAGA | -0.0477
7 | ACGACCTA | -0.0934
10 | AGGGGGCG | -0.326
19 | AAGTTAAG | -0.152

# Remaining list, next part

row,Sequence,PBM E-score
1,TCTAGAAA,-0.148
2,TAATACGA,0.196
3,ATGTATAA,0.137
4,ATGGAAGA,-0.289
5,CAGGTGGG,-0.0969
6,CAAGATAC,-0.0667
7,ATAAGCAT,0.0827
8,GGAGATTA,-0.0629
9,GAAAACAA,0.0685
10,TGGGCCAA,-0.0473
11,AAGCGATG,-0.0678
12,ACGGACGG,-0.0788
13,CGATAGGA,-0.124
14,CACAGCTA,0.00972
15,ATGTGGGC,-0.00867
16,CATTACGC,0.0335
17,CCCCAGCC,-0.104
18,CGTCGCCC,-0.279
19,AATCCCAC,-0.101
20,GCTCCAGA,-0.0292
21,CCTTCTTC,-0.242
22,AATCCTCC,0.0477
